Laboratory results: PubChem BioAssay AID504786 (Drosophila RNAi Screening Center, 2011)

Screen: 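Positive regulators of HIF-driven reporter output in Drosophila cells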 (primary screen)
Cell system: Drosophila S2 cells with a stable HIF luciferase reporter
Reagents: long dsRNA against Drosophila genes, about 0.2 µg dsRNA per well of a 384-well plate
Time to read-out: three days of knock-down, then 20 h of DFO before reading
Challenge: desferrioxamine (DFO) at 100 µM, an iron chelator that mimics hypoxia, for 20 h
Read-out: 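HIF reporter luminescence in cells given 100 µM DFO for 20 h, using the mouse ldh-a hypoxia-response element, scored as per-plate z-scores; higher means greater loss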
Reading the numbers: z-score: higher = stronger loss of HIF reporter signal
In all, the deposit lists about 21,000 reagents; below is a random part of those with a known target gene and a result. 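Primary screen; positive scores mean lost reporter signal, so the sign may be inverted from the usual convention.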 Reagents against one gene are numbered here. A plus sign joins genes that one reagent is predicted to hit. No sequences are given here.

target gene | reagent | z-score, replicate 1 | z-score, replicate 2 | z-score, replicate 3 | z-score, replicate 4
kst (karst) | 1 | -0.3 | -0.6 | – | –
CG15127 | 1 | -1.2 | -0.3 | – | –
CG15127 | 2 | -0.3 | -0.4 | – | –
CG7368 | 1 | -0.3 | 0 | 1 | -0.4
Gagr (Gag-related) | 1 | -0.3 | -0.4 | – | –
CG8197 | 1 | -0.4 | -0.6 | – | –
CG5276 | 1 | -0.4 | -0.3 | – | –
CG7789 | 1 | -0.3 | -0.7 | – | –
NitFhit (Nitrilase and fragile histidine triad fusion protein) | 1 | -0.1 | -0.4 | – | –
ds (dachsous) | 1 | 0 | -0.4 | – | –
BicC (Bicaudal C) | 1 | -0.2 | -0.7 | – | –
side-VIII (sidestep VIII) | 1 | -0.8 | -0.2 | – | –
side-VIII (sidestep VIII) | 2 | 3 | 3.8 | – | –
side-VIII (sidestep VIII) | 3 | 0 | 0.4 | -0.6 | -0.4
CG14543 | 1 | 3.1 | 1.1 | – | –
snRNP-U1-C (small ribonucleoprotein particle U1 subunit C) | 1 | 2.2 | 1.7 | – | –
CG11588 | 1 | -0.3 | -0.7 | – | –
CG11588 | 2 | -0.3 | -0.4 | – | –
CSN8 (COP9 signalosome subunit 8) | 1 | 1.2 | 2 | – | –
Tb (Tubby) | 1 | -0.3 | -0.7 | – | –
fl(2)d (female lethal d) | 1 | -0.2 | -0.6 | – | –
CG32793 | 1 | -0.3 | -0.9 | – | –
CG32793 | 2 | -0.4 | -0.8 | – | –
CG10384 | 1 | -0.3 | -0.2 | – | –
CG10384 | 2 | 0.7 | 0.7 | – | –
Axud1 (AXIN1 up-regulated 1) | 1 | -0.1 | -0.3 | – | –
NetA (Netrin-A) | 1 | -0.3 | -0.4 | – | –
ens (ensconsin) | 1 | -0.2 | -0.5 | – | –
CG8191 + CG12379 | 1 | -0.3 | -1 | – | –
RhoGEF3 (Rho guanine nucleotide exchange factor 3) | 1 | -0.4 | -0.2 | – | –
RhoGEF3 (Rho guanine nucleotide exchange factor 3) | 2 | -0.2 | -0.2 | – | –
CheB74a (Chemosensory protein B 74a) | 1 | -0.3 | -0.2 | – | –
phtm (phantom) | 1 | -0.4 | -0.6 | – | –
CG2147 | 1 | -0.2 | -0.1 | – | –
CG15773 | 1 | -0.3 | -0.4 | – | –
CG34433 | 1 | -0.3 | -0.5 | – | –
CG17751 | 1 | -1.3 | -0.3 | – | –
CG15747 | 1 | -0.1 | 0 | – | –
Snmp2 (Sensory neuron membrane protein 2) | 1 | -0.1 | 0 | – | –
Snmp2 (Sensory neuron membrane protein 2) | 2 | -0.2 | 0 | – | –
CG15317 | 1 | -0.2 | -0.7 | – | –
Surf1 (Surfeit 1) | 1 | 0.1 | 2.2 | – | –
Surf1 (Surfeit 1) | 2 | -0.3 | -0.7 | – | –
Gas41 | 1 | -0.3 | 0.7 | – | –
CG33159 | 1 | 0.1 | -0.5 | – | –
CG13392 | 1 | -0.2 | -0.1 | – | –
LBR (Lamin B receptor) | 1 | 0.3 | 1.4 | – | –
Spn77Ba (Serpin 77Ba) | 1 | -0.3 | -0.2 | – | –
CG42713 | 1 | 0.1 | 0 | – | –
Targ1 (Terminal ADP-ribose protein glycohydrolase 1) | 1 | -0.1 | -0.3 | – | –
CG4704 | 1 | -0.1 | 0.3 | – | –
Obp8a (Odorant-binding protein 8a) | 1 | -0.3 | -0.1 | – | –
Dredd (Death related ced-3/Nedd2-like caspase) | 1 | -0.2 | -0.3 | – | –
Lcch3 (Ligand-gated chloride channel homolog 3) | 1 | -0.3 | -0.3 | – | –
CG2116 | 1 | -0.2 | -0.1 | – | –
Wwox (WW domain containing oxidoreductase) | 1 | -0.4 | -0.5 | – | –
Muc4B (Mucin 4B) | 1 | -0.5 | -0.4 | – | –
Muc4B (Mucin 4B) | 2 | -0.3 | -0.6 | – | –
Nnp-1 | 1 | -0.1 | 3.7 | – | –
Prosalpha3 (Proteasome alpha3 subunit) | 1 | 3.3 | 4 | – | –
beat-Ia (beaten path Ia) | 1 | -0.3 | -0.2 | – | –
Dtg (Dpp target gene) | 1 | -0.3 | -0.4 | – | –
yps (ypsilon schachtel) | 1 | -0.2 | -0.6 | – | –
CG6330 | 1 | -0.3 | -0.6 | – | –
Rrp5 (Ribosomal RNA Processing 5) | 1 | -0.2 | 0.2 | – | –
CG44153 | 1 | 0 | -0.5 | – | –
CG44153 | 2 | 0.2 | 0.4 | – | –
CG44153 | 3 | -0.2 | -0.1 | – | –
CG44153 | 4 | -0.2 | -0.2 | – | –
CG31835 + CG42585 | 1 | 0.3 | 0.7 | – | –
ND6 (retired record) | 1 | 0 | -0.3 | -0.5 | -0.4
Rab3-GAP (Rab3 GTPase activating protein) | 1 | -0.4 | -0.7 | – | –
CG15528 | 1 | -0.1 | 0.1 | – | –
CG13965 | 1 | -0.2 | -0.1 | – | –
ed (echinoid) | 1 | -0.3 | -0.5 | – | –
ed (echinoid) | 2 | -0.2 | -0.3 | – | –
ed (echinoid) | 3 | -0.2 | -0.1 | – | –
ed (echinoid) | 4 | -0.2 | -0.4 | – | –
CG40198 | 1 | 0 | -0.2 | – | –
Vav (Vav guanine nucleotide exchange factor) | 1 | -0.5 | -0.6 | – | –
CG34205 | 1 | -0.3 | -0.4 | – | –
Bro | 1 | -0.3 | -0.4 | – | –
fd59A (forkhead domain 59A) | 1 | -0.3 | -0.7 | – | –
Cyp6g2 (Cytochrome P450 6g2) | 1 | -0.4 | 0.2 | – | –
CG31419 | 1 | -0.4 | -0.2 | – | –
Lcp65Af | 1 | -0.3 | -0.4 | – | –
sv (shaven) | 1 | -0.3 | 0 | – | –
Bdp1 (B double prime 1) | 1 | 0.1 | 0.4 | – | –
cta (concertina) | 1 | -0.2 | -0.1 | – | –
wapl (wings apart-like) | 1 | -0.2 | -0.9 | – | –
CG12446 | 1 | -0.2 | -0.3 | – | –
CG31253 + CG31131 | 1 | 0 | -0.2 | – | –
Psf1 (Partner of Sld Five 1) | 1 | -0.2 | -0.1 | 0.4 | 0
CG13751 | 1 | -0.3 | 0 | – | –
CG4957 | 1 | -0.1 | 0.1 | – | –
sNPF (short neuropeptide F precursor) | 1 | -0.1 | 0.9 | – | –
norpA (no receptor potential A) | 1 | -0.2 | -0.7 | – | –
FMRFaR (FMRFamide Receptor) | 1 | -0.4 | -0.6 | – | –
TotA (Turandot A) | 1 | -0.1 | -0.1 | – | –
Ktl (Kctd12-like) | 1 | 0 | -0.3 | – | –
CG42361 | 1 | 0.1 | -0.2 | – | –
CG7065 | 1 | 5.7 | 3.6 | – | –
CG32214 | 1 | -0.3 | -0.5 | – | –
Pdhb (Pyruvate dehydrogenase E1 beta subunit) | 1 | 0 | 0 | – | –
CG13609 | 1 | -0.5 | -0.1 | – | –
CG31910 + snoRNA:Me28S-G2743 (retired record) | 1 | -0.4 | -0.2 | – | –

Laid out differently: results already given.
{"target gene":"ND6 (retired record)","reagent":1,"z-score, replicate 1":0,"z-score, replicate 2":-0.3,"z-score, replicate 3":-0.5,"z-score, replicate 4":-0.4}
{"target gene":"Rab3-GAP (Rab3 GTPase activating protein)","reagent":1,"z-score, replicate 1":-0.4,"z-score, replicate 2":-0.7}
{"target gene":"CG15528","reagent":1,"z-score, replicate 1":-0.1,"z-score, replicate 2":0.1}
{"target gene":"CG13965","reagent":1,"z-score, replicate 1":-0.2,"z-score, replicate 2":-0.1}
{"target gene":"ed (echinoid)","reagent":1,"z-score, replicate 1":-0.3,"z-score, replicate 2":-0.5}
{"target gene":"ed (echinoid)","reagent":2,"z-score, replicate 1":-0.2,"z-score, replicate 2":-0.3}
{"target gene":"ed (echinoid)","reagent":3,"z-score, replicate 1":-0.2,"z-score, replicate 2":-0.1}
{"target gene":"ed (echinoid)","reagent":4,"z-score, replicate 1":-0.2,"z-score, replicate 2":-0.4}
{"target gene":"CG40198","reagent":1,"z-score, replicate 1":0,"z-score, replicate 2":-0.2}
